Several values for one entry are separate records, joined by “and”; a condition that tells them apart may be missing. Equal entries are not always repeated. This continues a long series; more values of the same kind are listed elsewhere.
Experiment: Concentrations of DCDQ and DCDQ carbamoyl glucuronide (M6) in human plasma, LC/SRM (Table 34)
Format: in vivo, healthy human subjects
Method: Drug administration and specimen collection were performed in a randomized, double-blinded, placebo-controlled, ascending single dose study of the safety, tolerability, pharmacokinetics, and pharmacodynamics of DCDQ administered orally to healthy subjects and subjects with schizophrenia and schizoaffective disorder. The specimens were stored at approximately −70° C. until analysis for metabolite profiles and for ratios of carbamoyl glucuronide (M6) to DCDQ.
Plasma samples from fasted subjects 25, 28 and 30 in the 50 mg single dose group, fasted subjects 50, 51, 54 in the 200 mg single dose group, fasted subjects 74, 76, 79 in the 300 mg single dose group, fed subjects 83, 84, 86 in the 300 mg single dose group and fasted subjects 92, 94, 96 in the 500 mg single dose group were analyzed for DCDQ carbamoyl glucuronide (M6) concentrations. The internal standard d8-DCDQ (25 μL of 200 ng/mL methanol solution) was added to 100 μL of the plasma samples, followed by the addition of 300 μL of acetonitrile. The samples were mixed and centrifuged at 14000 rpm in an Eppendorf 5415C centrifuge (Brinkman Instruments Inc., Westbury, N.Y.) for 10 minutes. The supernatant of each sample was transferred to a clean tube and evaporated to dryness under a stream of nitrogen in a TurboVap LV evaporator (Caliper Life Sciences, Hopkinton, Mass.). The residue was reconstituted with 50 μL of methanol followed by the addition of 150 μL of water. The sample was mixed and centrifuged as described above. The supernatant was analyzed by LC/MS/MS analysis. Samples for standard curves were prepared with control plasma spiked with synthetic M6. The concentrations of M6 used for the standard curve ranged from 0 to 2500 ng/mL plasma.
LC/MS System 3 was used for semi-quantitative analysis of metabolite M6 (DCDQ carbamoyl glucuronide) in plasma and urine samples. The HPLC equipment for this LC/MS System consisted of a Thermo Surveyor HPLC (Thermo Electron Corp., San Jose, Calif.), including a Surveyor MS pump and autosampler. Separations were accomplished on a 5 micron Phenomenex Luna C18(2) column, 150×2 mm (Phenomenex, Torrance, Calif.). The autosampler and column temperatures were set at 5° C. and 40° C., respectively. The HPLC mobile phase consisted of 10 mM ammonium acetate (A) and methanol (B), and was delivered at 0.2 mL/min. The linear mobile phase gradient (HPLC Gradient 2) is shown below. During LC/MS sample analysis, up to 3 min of the initial flow was diverted away from the mass spectrometer prior to evaluation of metabolites.
The mass spectrometer used for semi-quantitative anslysis with LC/MS System 3 was a Finnigan TSQ Quantum triple quadrupole mass spectrometer (Thermo Electron Corp.). The mass spectrometer was equipped with an electrospray interface and operated in the positive ionization mode. Settings for this mass spectrometer are listed below.
LC/MS/MS analysis in the selected reaction monitoring (SRM) mode (LC/SRM) was conducted for DCDQ and M6 using the following settings.
The computer program Microsoft Excel® 97 was used to calculate means and standard deviations and to perform the student t-test. Xcalibur (version 1.3) and MassLynx software (version 4.0) were used for collection and analysis of LC/MS data. Peak area ratios of M6 to the internal standard were used for quantitation of M6 in plasma samples.

[1] = 50 mg (fasted), 6 hr, individual subjects

| SMILES | DCDQ concentration in plasma [1] | M6 to DCDQ Ratios [1] | M6 to DCDQ Ratios (300 mg (fed), 12 hr, Mean ± S.D.) | M6 to DCDQ Ratios (300 mg (fed), 12 hr, individual subjects) | M6 to DCDQ Ratios (300 mg (fed), 24 hr, Mean ± S.D.) | M6 to DCDQ Ratios (300 mg (fed), 24 hr, individual subjects) | M6 to DCDQ Ratios (500 mg (fasted), 6 hr, Mean ± S.D.) | M6 to DCDQ Ratios (500 mg (fasted), 6 hr, individual subjects) | M6 to DCDQ Ratios (500 mg (fasted), 12 hr, Mean ± S.D.) | M6 to DCDQ Ratios (500 mg (fasted), 12 hr, individual subjects) | M6 to DCDQ Ratios (500 mg (fasted), 24 hr, Mean ± S.D.) | M6 to DCDQ Ratios (500 mg (fasted), 24 hr, individual subjects) |
| --- | --- | --- | --- | --- | --- | --- | --- | --- | --- | --- | --- | --- |
| c1cc2c3c(c1)[C@H]1CCC[C@H]1CN3CCNC2 [DCDQ, (9aR,12aS)-4,5,6,7,9,9a,10,11,12,12a-decahydro-cyclopenta[c][1,4]diazepine[6,7,1-ij]quinoline, reference compound] | 1.5 ng/mL |  |  |  |  |  |  |  |  |  |  |  |
| O=C(O)[C@H]1O[C@@H](OC(=O)N2CCN3C[C@@H]4CCC[C@@H]4c4cccc(c43)C2)[C@H](O)[C@@H](O)[C@@H]1O [Metabolite M6, carbamoyl glucuronide of DCDQ] |  | 55.4 | 40.3 ± 44.7 | 90.5 | 23.1 ± 27.1 | 9.46 and 5.57 and 54.3 | 35.4 ± 22.7 | 29.8 and 16.0 and 60.4 | 10.5 ± 5.92 | 5.96 and 8.34 and 17.2 | 10.7 ± 8.77 | 10.5 and 1.96 and 19.5 |

Reference: patent publication US20060111305A1, “Metabolites of certain [1,4]diazepino[6,7,1-ij]quinoline derivatives and methods of preparation and use thereof” (Wyeth, priority 2004, published 2006)
